Measured values from US20160289298A1.
Results are given in words; binding and its absence hold for the method and conditions named. Some binding calls cover weakened binding; strength is not graded here. Where a sequence is shown, tags or fusion partners need not be part of it.

Amino acid sequences for entries named in this document (tags omitted). Residues count along the entry.
UniProt P22004, residues 382-513: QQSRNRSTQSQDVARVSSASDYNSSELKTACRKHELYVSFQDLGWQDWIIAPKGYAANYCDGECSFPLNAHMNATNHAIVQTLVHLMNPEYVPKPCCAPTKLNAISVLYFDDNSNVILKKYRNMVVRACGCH

T1: activin B (UniProt P09529)
T1 sequence (looked up): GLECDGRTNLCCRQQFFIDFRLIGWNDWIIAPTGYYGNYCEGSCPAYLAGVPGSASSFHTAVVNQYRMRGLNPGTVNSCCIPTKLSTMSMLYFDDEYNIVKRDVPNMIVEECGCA

T2: BMP10 (UniProt O95393)
T2 sequence (looked up): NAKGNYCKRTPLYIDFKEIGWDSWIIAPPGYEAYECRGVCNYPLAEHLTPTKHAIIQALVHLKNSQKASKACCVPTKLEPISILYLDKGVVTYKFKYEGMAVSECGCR

T3: GDF8 (UniProt O14793)
T3 sequence (looked up): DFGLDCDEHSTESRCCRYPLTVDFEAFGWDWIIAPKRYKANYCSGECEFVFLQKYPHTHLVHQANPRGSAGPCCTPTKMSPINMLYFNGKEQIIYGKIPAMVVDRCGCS

T4: GDF11 (UniProt O95390)
T4 sequence (looked up): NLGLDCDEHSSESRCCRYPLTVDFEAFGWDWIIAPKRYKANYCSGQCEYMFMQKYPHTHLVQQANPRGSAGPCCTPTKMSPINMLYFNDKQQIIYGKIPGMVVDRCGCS

T5: BMP9 (UniProt Q9UK05)
T5 sequence (looked up): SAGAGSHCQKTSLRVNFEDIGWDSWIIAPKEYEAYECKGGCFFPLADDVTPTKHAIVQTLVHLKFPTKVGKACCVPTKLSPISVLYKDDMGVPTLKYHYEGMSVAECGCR

T6: GDF6 (UniProt Q6KF10)
T6 sequence (looked up): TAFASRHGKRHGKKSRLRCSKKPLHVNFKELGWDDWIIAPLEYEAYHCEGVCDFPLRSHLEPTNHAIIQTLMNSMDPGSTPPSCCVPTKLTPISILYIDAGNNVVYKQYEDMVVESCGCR


How the values were obtained:
[1] = target: T1, activin B; experiment: SPR (Biacore), receptor-Fc captured by anti-Fc antibody, ligand injected
[2] = target: T2, BMP10; experiment: as above
[3] = target: T3, GDF8; experiment: as above
[4] = target: T4, GDF11; experiment: as above
[5] = target: T1, activin B; experiment: SPR (Biacore), legend of FIG. 6; the five ligands are named in paragraph 510
[6] = target: T2, BMP10; experiment: as above
[7] = target: T3, GDF8; experiment: as above
[8] = target: T4, GDF11; experiment: as above
[9] = target: BMP6 (UniProt P22004); experiment: Biacore; receptor-Fc captured with anti-Fc antibody, ligand injected; ligands ranked by off-rate
[10] = target: T5, BMP9; experiment: as above
[11] = target: BMP6 (UniProt P22004); experiment: SPR (Biacore), receptor-Fc captured by anti-Fc antibody, ligand injected
[12] = target: T6, GDF6; experiment: as above

binding [1]	binding [2]	binding [3]	binding [4]	binding [5]	binding [6]	binding [7]	binding [8]	binding [9]	binding [10]	binding [11]	binding [12]	Binder
binds	binds	binds	binds	binds	binds	binds	binds	binds	binds	–	–	ActRIIB-Fc homodimeric complex (Fc fusion, UniProt Q13705 20-134, looked up, not shown: a dimerising Fc or GST) GRGEAETRECIYYNANWELERTNQSGLERCEGEQDKRLHCYASWRNSSGTIELVKKGCWLDDFNCYDRQECVATEENPQVYFCCCEGNFCNERFTHLPEAGGPEVTYEPPPTAPT
–	–	–	–	–	–	–	–	–	–	binds	binds	BMPRII-Fc homodimeric complex (Fc fusion, UniProt Q13873 27-150, looked up, not shown: a dimerising Fc or GST) SQNQERLCAFKDPYQQDLGIGESRISHENGTILCSKGSTCYGLWEKSKGDINLVKQGCWSHIGDPQECHYEECVVTTTPPSIQNGTYRFCCCSTDLCNVNFTENFPPPDTTPLSPPHSFNRDET
